# In patent US20100221758A1, “Sensors for Measuring Contaminants” (ECI Biotech Inc., priority 2007, published 2010):
# Test system: M. hyorhinis
# Assay: Effect of divalent cations on Vmax, MCA-Leu substrate
# Format: biochemical, Mycoplasma hyorhinis
# Conditions: 1 mM additive in place of 1 mM MgCl2
# Protocol: A presently preferred substrate is leu-MCA that had significant activity above the uninfected media control under the gentle conditions used to lyse the Mycoplasma (0.05% HECAMEG, 1 mM MgCl2, 100 mM NaCl, 40 mM Tris buffer, pH 8.5). The MCA-Leu substrate produces a signal level of 500 mOD in 30 minutes with M. hyorhinis, while M. hyorhinis has weak activity for arg-MCA.
# Detergent lysis of M. hyorhinis with HECAMEG gives better signal than sonication. Manganese or magnesium also improves the signal to noise ratio.
row,Structure (SMILES),"Signal/Noise, MCA-Leu Substrate"
1,O=C(O)CN(CCN(CC(=O)O)CC(=O)O)CC(=O)O [EDTA],11.68
2,O=S(=O)([O-])[O-].[Mg+2] [MgSO4],17.63
3,[Cl][Mn][Cl] [MnCl2],23.43 and 31.37

# Where “and” joins values, the source holds several entries; their conditions need not be identical. Equal entries are not always repeated.
